PubChem BioAssay AID504744 | Drosophila RNAi Screening Center | 2011

Aim: 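Uncover factors, including feedback loops, that control dAkt activation in fly cells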 (primary screen)
Cells: Drosophila Kc167 cells
Reagent: long dsRNA against Drosophila genes, 250 ng dsRNA per well of a 384-well plate
Duration: 3 days of knock-down, then overnight serum-free starvation before stimulation
Conditions: bovine insulin at 387 nM for 10 minutes after 12 h without serum
Detection: 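Per-well phospho-dAkt level from an in-cell fluorescent antibody stain, divided by a DNA-dye signal; log2 residuals turned into z-scores that take cell number into account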
Active means: 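Hit in the insulin screen when the two-replicate mean z-score is more extreme than plus or minus 2.5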
In all, the deposit lists about 23,000 reagents; below is a random part of those that have a named target and a result. In the full data, 98 (0.43%) got an active call. 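Only hit calls are given; the phospho-dAkt signals, z-scores and hit direction were not deposited.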 The numbers tell different reagents against one gene apart. A plus sign joins genes that one reagent is predicted to hit.

predicted target | dsRNA no. | call
DCAF12 (DDB1 and CUL4 associated factor 12) | 1 | inactive
Hmr (Hybrid male rescue) | 1 | inactive
CG8870 | 1 | inactive
hh (hedgehog) | 1 | inactive
COX7A (Cytochrome c oxidase subunit 7A) | 1 | inactive
Mlf (Myelodysplasia/myeloid leukemia factor) | 1 | inactive
CG7295 | 1 | inactive
CG10700 | 1 | inactive
scrt (scratch) | 1 | inactive
Him (Holes in muscle) | 1 | inactive
CG14269 | 1 | inactive
alpha-Est8 (alpha-Esterase-8) | 1 | inactive
lncRNA:sphinx (long non-coding RNA:sphinx) | 1 | inactive
CG14505 | 1 | inactive
Eaat1 (Excitatory amino acid transporter 1) | 1 | inactive
eIF4H2 (eukaryotic translation initiation factor 4H2) | 1 | inactive
Scp2 (Sarcoplasmic calcium-binding protein 2) | 1 | inactive
Scp2 (Sarcoplasmic calcium-binding protein 2) | 2 | inactive
CG13362 | 1 | inactive
EMC8-9 (ER membrane protein complex subunit 8/9) | 1 | inactive
CG2321 | 1 | inactive
jus (julius seizure) | 1 | inactive
jus (julius seizure) | 2 | inactive
MtnB (Metallothionein B) | 1 | inactive
trk (trunk) | 1 | inactive
CG9616 | 1 | inactive
Or85d (Odorant receptor 85d) | 1 | inactive
CG14676 | 1 | inactive
CG12817 + CG12420 | 1 | inactive
CG6415 | 1 | inactive
CG2641 | 1 | inactive
TwdlR (TweedleR) | 1 | inactive
CG1638 | 1 | inactive
Ir75b (Ionotropic receptor 75b) | 1 | inactive
CG14185 | 1 | inactive
CG18063 | 1 | inactive
CG17032 | 1 | inactive
Bap111 (Brahma associated protein 111kD) | 1 | inactive
Tmtc1 (Transmembrane O-mannosyltransferase targeting cadherins 1) | 1 | inactive
Tmtc1 (Transmembrane O-mannosyltransferase targeting cadherins 1) | 2 | inactive
Tmtc1 (Transmembrane O-mannosyltransferase targeting cadherins 1) | 3 | inactive
Tmtc1 (Transmembrane O-mannosyltransferase targeting cadherins 1) | 4 | inactive
egl (egalitarian) | 1 | inactive
Mur2B (Mucin related 2B) | 1 | inactive
Mur2B (Mucin related 2B) | 2 | inactive
Ctu2 (Cytosolic thiouridylase subunit 2) | 1 | inactive
Unc-115b + p24-2 | 1 | inactive
CG43707 | 1 | inactive
CG43707 | 2 | inactive
Cyp4d1 (Cytochrome P450 4d1) | 1 | inactive
Cyp4d1 (Cytochrome P450 4d1) | 2 | inactive
Liprin-beta | 1 | inactive
NP15.6 | 1 | inactive
Jhbp14 (Juvenile hormone binding protein 14) | 1 | inactive
Pvr (PDGF- and VEGF-receptor related) | 1 | inactive
Polr1C (RNA polymerase I and III subunit C) | 1 | active
CG11159 | 1 | inactive
Eno (Enolase) | 1 | inactive
CG11191 | 1 | inactive
Rrp5 (Ribosomal RNA Processing 5) | 1 | inactive
Ir56b (Ionotropic receptor 56b) | 1 | inactive
CG12698 | 1 | inactive
Mur18B (Mucin related 18B) | 1 | inactive
CG34057 | 1 | inactive
CG10918 | 1 | inactive
Mpp6 (M-phase phosphoprotein 6) | 1 | inactive
CG8541 | 1 | inactive
CG4593 | 1 | inactive
NHP2 | 1 | inactive
dpr3 (defective proboscis extension response 3) | 1 | inactive
dpr3 (defective proboscis extension response 3) | 2 | inactive
dpr3 (defective proboscis extension response 3) | 3 | inactive
CG31909 | 1 | inactive
gammaSnap1 (gamma Soluble NSF attachment protein 1) | 1 | inactive
Mvk + CG33672 + spt4 | 1 | inactive
Mvk + CG33672 + spt4 | 2 | inactive
CG31952 | 1 | inactive
CG31952 | 2 | inactive
CG13062 | 1 | inactive
CG30471 | 1 | inactive
SF2 (Splicing factor 2) | 1 | inactive
CG42676 | 1 | inactive
CG42676 | 2 | inactive
Alg9 (ALG9, alpha-1,2-mannosyltransferase) | 1 | inactive
SdhD (Succinate dehydrogenase, subunit D) | 1 | inactive
CG31220 | 1 | inactive
lig (lingerer) | 1 | inactive
lig (lingerer) | 2 | inactive
Hsepi (Heparan sulfate C5-epimerase) | 1 | inactive
EMC4 (ER membrane protein complex subunit 4) | 1 | inactive
Dpy-30L2 (Dpy-30-like 2) | 1 | inactive
Blos4 | 1 | inactive
ATP8A (ATPase 8A) | 1 | inactive
ATP8A (ATPase 8A) | 2 | inactive
ATP8A (ATPase 8A) | 3 | inactive
CG34256 | 1 | inactive
CG7968 | 1 | inactive
Larp7 (La related protein 7) | 1 | inactive
MED1 (Mediator complex subunit 1) | 1 | inactive
Naa30A (N(alpha)-acetyltransferase 30 A) | 1 | inactive
XRCC1 | 1 | inactive
CG30334 | 1 | inactive
Ras85D (Ras oncogene at 85D) | 1 | inactive
CG14647 | 1 | inactive
CG14647 | 2 | inactive
CG12713 | 1 | inactive
CG33233 | 1 | inactive
l(3)76BDm (lethal (3) 76BDm) | 1 | inactive
CG18094 | 1 | inactive
CG14014 | 1 | inactive
Tmtc4 (Transmembrane O-mannosyltransferase targeting cadherins 4) | 1 | inactive
Vps15 (Vacuolar protein sorting 15) | 1 | inactive
RYa-R (RYamide receptor) | 1 | inactive
CG4733 | 1 | inactive
TrpRS-m (Tryptophanyl-tRNA synthetase, mitochondrial) | 1 | inactive
Cul3 (Cullin 3) | 1 | inactive
Cul3 (Cullin 3) | 2 | inactive
CG34404 | 1 | inactive
CG34404 | 2 | inactive
nudC | 1 | inactive
nudC | 2 | inactive
sc (scute) | 1 | inactive
CG2247 | 1 | inactive
CG6340 | 1 | inactive
Scgalpha (Sarcoglycan alpha) | 1 | inactive
CG4704 | 1 | inactive
Vps50 (Vacuolar protein sorting 50) | 1 | inactive
Bx (Beadex) | 1 | inactive
Ilp5 (Insulin-like peptide 5) | 1 | inactive
Slimp (Seryl-tRNA synthetase-like insect mitochondrial protein) | 1 | inactive
CG8671 | 1 | inactive
CG8671 | 2 | inactive
CG15653 | 1 | inactive
mRF1 (mitochondrial translation release factor 1) | 1 | inactive
Cpn (Calphotin) | 1 | inactive
CG18764 | 1 | inactive
SIFa (SIFamide) | 1 | inactive
sisA | 1 | inactive
tzn (tenzing norgay) | 1 | inactive
CG14342 | 1 | inactive
CG6144 | 1 | inactive
CG31161 | 1 | inactive
TwdlJ (TweedleJ) | 1 | inactive
CG18853 | 1 | inactive
CG6398 | 1 | inactive
frtz (fritz) | 1 | inactive
Lcp65Ae | 1 | inactive
Pop2 | 1 | inactive
CG13144 | 1 | inactive
cni (cornichon) | 1 | inactive
CG14717 | 1 | inactive
epsilonTry (epsilonTrypsin) | 1 | inactive
Ugt49C1 (UDP-glycosyltransferase family 49 member C1) | 1 | inactive
eEF2 (eukaryotic translation elongation factor 2) | 1 | inactive
CG9150 | 1 | inactive
SkpE (SKP1-related E) | 1 | inactive
Nt5c (5' nucleotidase C) | 1 | inactive
ReepA (Receptor expression enhancing protein A) | 1 | inactive
ReepA (Receptor expression enhancing protein A) | 2 | inactive
CG31099 | 1 | inactive
Nach | 1 | inactive
CG15715 | 1 | inactive
CG6329 | 1 | inactive
nur (nemuri) | 1 | inactive
CG8195 | 1 | inactive
CheB93b (Chemosensory protein B 93b) | 1 | inactive
Tehao | 1 | inactive
mRpL2 (mitochondrial ribosomal protein L2) | 1 | inactive
CG4829 | 1 | inactive
CG34297 | 1 | inactive
CG4199 | 1 | inactive
CG4199 | 2 | inactive
YME1L (YME1 like ATPase) | 1 | inactive
l(1)G0004 (lethal (1) G0004) | 1 | inactive
RalGPS (Ral GEF with PH domain and SH3 binding motif) | 1 | inactive
CR15821 (pseudo) | 1 | inactive
CG13339 | 1 | inactive
CG16974 | 1 | inactive
CG9289 | 1 | inactive
rdgC (retinal degeneration C) | 1 | inactive
CalpA (Calpain-A) | 1 | inactive
Pomp | 1 | inactive
CG13670 | 1 | inactive
CG5790 | 1 | inactive
CG18273 | 1 | inactive
CG18273 | 2 | inactive
Nepl11 (Neprilysin-like 11) | 1 | inactive
bnb (bangles and beads) | 1 | inactive
CG32727 | 1 | inactive
HIP + HIP-R | 1 | inactive
CG14143 | 1 | inactive
Antdh (Antennal dehydrogenase) | 1 | inactive
RpL23A (Ribosomal protein L23A) | 1 | inactive
RpL23A (Ribosomal protein L23A) | 2 | inactive
CG6304 | 1 | inactive
CG18586 | 1 | inactive
bi (bifid) | 1 | inactive
CG15144 | 1 | inactive
adp (adipose) | 1 | inactive
VhaAC45 (Vacuolar H[+] ATPase AC45 accessory subunit) | 1 | inactive

Records above with an active call, once more:
predicted target | dsRNA no. | call
Polr1C (RNA polymerase I and III subunit C) | 1 | active
